From PubChem BioAssay AID2685 (National Center for Advancing Translational Sciences (NCATS), 2010)
Some of the results follow. The main result of the screen is listed elsewhere. These columns were measured beside it and carry no call. Compounds called inactive in the main read-out are mostly missing here. Words in brackets tell the shape of the fitted curve; partial curves, single points and poor fits give uncertain potencies.

Experiment: qHTS Assay for Lipid Storage Modulators in Drosophila S3 Cells;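 on cell number change: cells counted by Cell Tracker Red CMTPX staining in the red channel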
Conditions: BODIPY lipid droplet fluorescence, 18-24 h; for cell number change: measured here: cell count max response, cells fed with added oleic acid
Summary of the method: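 Drosophila S3 cells loaded with oleic acid (400 uM, as added) and compounds at several concentrations; lipid droplets imaged by 488-nm laser-scanning cytometry, 500–530 nm intensity and object ratio to cell channel. Percent activity normalized to 20 uM Triacsin C.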

[1] = measured here: cell number channel AC50, cells fed with added oleic acid
[2] = measured here: lipid fluorescence (Fed channel) AC50, cells fed with added oleic acid

Structure (SMILES)	cell number change [%]	AC50 [1]	AC50 [2]
COc1cccc(N(CC(=O)NCc2ccccc2)C(=O)CCC(=O)Nc2nccs2)c1	173	29.1 µM [rising, single point]	–
COc1ccc(N2CCN(c3oc(-c4ccccc4OC)nc3C#N)CC2)cc1	30.2	29.1 µM [rising, single point]	–
O=C(c1ccncc1)N(Cc1ccccc1)Cc1nc2ccccc2c(=O)[nH]1	8.47	–	1.84 µM [falling, partial curve]
COc1ccccc1CNC(=O)CCNC(=O)c1ccco1	–	0.82 µM [rising, single point]	6.51 µM [rising, single point]
C=CC[n+]1c(-c2ccc(OC)c(OC)c2)csc1NNC(=O)Nc1ccccc1	-8.62	4.61 µM [rising, single point]	4.61 µM [rising, partial curve]
O=C(NNC(=O)C(O)c1ccccc1)NC1CCCCC1 (stereo not drawn)	-10.3	–	–
COC(=O)C1CCN(C(=O)COC(=O)C2CCN(S(=O)(=O)c3c(Cl)cccc3Cl)CC2)CC1	1.26	–	0.13 µM [falling, full curve, poor fit]
COc1ccc(OCCOCCN2CCN(C)CC2)cc1	8.4	–	29.1 µM [rising, single point]
CCN(CC(=O)Nc1cc(Cl)ccc1C)C(=O)CCS(=O)(=O)c1ccc(Cl)cc1	23.7	–	–
Clc1cccc(N=C2NN=C(c3ccc4c(c3)OCCO4)CS2)c1	-22.7	–	–
CCCCNC(=O)Cn1nc(C)c(S(=O)(=O)N2CCOCC2)c1C	21.4	0.731 µM [falling, single point]	–
Cc1ccccc1NC(=O)COC(=O)CN1C(=O)NC(C)(C)C1=O	35.5	29.1 µM [rising, single point]	–
CCN(CC)c1ccc(NC(=O)c2ccc(=O)[nH]c2)cc1S(=O)(=O)Nc1ccccc1OC	-22.9	–	2.91 µM [rising, full curve, poor fit]
CC(C)NC(=O)CSc1nc(N)c(NC(=O)c2ccccc2F)c(=O)[nH]1	-5.19	5.17 µM [falling, partial curve, poor fit]	32.6 µM [rising, single point]
Cc1ccc(C)c(S(=O)(=O)NCc2ccc(C(=O)N3CCOCC3)cc2)c1	0.867	–	29.1 µM [falling, single point]
COc1ccc(Cn2c(=O)[nH]c3cc(C(=O)N4CCN(c5ccc(C(C)=O)cc5)CC4)ccc3c2=O)cc1	4.17	5.8 µM [rising, partial curve]	–
O=C(CN(C(=O)CNC(=O)c1ccco1)c1ccc(Cl)c(Cl)c1)NC1CCCCC1	-18.5	–	–
COCCn1c(C)cc(C(=O)Cn2nc(C(=O)O)c3ccccc3c2=O)c1C	–	0.651 µM [rising, single point]	–
CC1(C)CC(NC(=S)NCc2ccc3c(c2)OCO3)CC(C)(C)N1	-20.8	0.164 µM [falling, full curve, poor fit]	10.3 µM [falling, single point]

Structure (SMILES)	cell number change [%]	AC50 [1]	AC50 [2]
Cc1ccccc1CC(=O)Nc1cccnc1	-17	–	6.51 µM [rising, single point]
CCOc1cc(/C=N/NC(=O)CSc2cccc3cccnc23)ccc1O	24.2	–	–
Cc1nc2ccc(C(=O)Nc3cccc([N+](=O)[O-])c3)cc2s1	–	6.51 µM [falling, single point]	–
CNc1oc(-c2ccc(Cl)cc2)nc1P(=O)(c1ccccc1)c1ccccc1	-35.2	29.1 µM [falling, single point]	29.1 µM [falling, single point]
COC(=O)c1c(C)[nH]c(C(=O)/C=C/c2ccccc2Cl)c1C	14.4	–	29.1 µM [rising, single point]
Cc1noc(C)c1C(=O)Nc1ccc(-c2nnc3n2CCCCC3)cc1	-0.551	–	0.731 µM [falling, full curve, poor fit]
CC(C)CN(C(=O)CSc1nnc2ccccn12)c1c(N)n(CC(C)C)c(=O)[nH]c1=O	63.7	16.4 µM [rising, partial curve]	–
CCOc1ccc(N2C(=O)c3ccccc3NC2(C)CC)cc1 (stereo not drawn)	-2.67	0.731 µM [falling, single point]	0.651 µM [falling, single point]
CC1(C)CC2CC(C)(CN2C(=O)c2cc(-c3ccc(O)cc3)on2)C1 (stereo not drawn)	–	–	0.731 µM [falling, partial curve, poor fit]
CC(=O)NCCn1c(SCC(=O)NCCc2ccc(S(N)(=O)=O)cc2)nc2ccccc2c1=O	34.5	32.6 µM [rising, single point]	–
COc1ccccc1N1CCN(C(=O)Nc2cccc(Cl)c2)CC1	114	9.2 µM [rising, partial curve]	13 µM [rising, partial curve]
COc1ccc(OC)c(N/C=C2/CCCCC2=O)c1	15.5	–	29.1 µM [rising, single point]
COc1ccc(C(=O)N/C(N)=N/c2nc3ccccc3o2)cc1	-41.2	11.6 µM [falling, partial curve]	16.4 µM [falling, single point]
O=C(COc1ccc(S(=O)(=O)N2CCOCC2)cc1)Nc1ccc(Cl)c(C(F)(F)F)c1	-27	–	2.06 µM [rising, single point]
O=C(CCn1c(=O)[nH]c2ccsc2c1=O)N1CCN(c2ccc([N+](=O)[O-])cc2)CC1	24.8	–	29.1 µM [falling, single point]
CCSc1nnc(NC(=O)CN2C(=O)C3CC=CCC3C2=O)s1 (stereo not drawn)	-22.2	–	0.00461 µM [falling, full curve, poor fit]
Cn1c(-n2c(CCN3C(=O)c4ccccc4C3=O)nc3ccccc3c2=O)nc2ccccc21	28.2	–	0.517 µM [rising, partial curve, poor fit]
COc1cccc(Nc2ncnc3onc(-c4ccccc4OC)c23)c1	-0.898	–	14.6 µM [rising, partial curve]
